The target in data set [1] is Xrn1 ΔNLS2 (Saccharomyces cerevisiae) (UniProt P22147). Put plainly: competition with a labelled probe. Particulars: 2 mM EDTA, RNA weakens Kap120 interaction; EMSA: 50 mM Tris-HCl pH 7.4, 150 mM NaCl, 2 mM DTT, 1 mM EDTA, 30 min at room temperature, 6% native PAGE in 0.5x …; native protein; protein details: FLAG. (In general: In EMSA bound probe runs differently from free probe, usually more slowly.)

By UniProt entry, the sequences of proteins in these tests, tags left out.
UniProt P22147, whole entry, stated change not applied: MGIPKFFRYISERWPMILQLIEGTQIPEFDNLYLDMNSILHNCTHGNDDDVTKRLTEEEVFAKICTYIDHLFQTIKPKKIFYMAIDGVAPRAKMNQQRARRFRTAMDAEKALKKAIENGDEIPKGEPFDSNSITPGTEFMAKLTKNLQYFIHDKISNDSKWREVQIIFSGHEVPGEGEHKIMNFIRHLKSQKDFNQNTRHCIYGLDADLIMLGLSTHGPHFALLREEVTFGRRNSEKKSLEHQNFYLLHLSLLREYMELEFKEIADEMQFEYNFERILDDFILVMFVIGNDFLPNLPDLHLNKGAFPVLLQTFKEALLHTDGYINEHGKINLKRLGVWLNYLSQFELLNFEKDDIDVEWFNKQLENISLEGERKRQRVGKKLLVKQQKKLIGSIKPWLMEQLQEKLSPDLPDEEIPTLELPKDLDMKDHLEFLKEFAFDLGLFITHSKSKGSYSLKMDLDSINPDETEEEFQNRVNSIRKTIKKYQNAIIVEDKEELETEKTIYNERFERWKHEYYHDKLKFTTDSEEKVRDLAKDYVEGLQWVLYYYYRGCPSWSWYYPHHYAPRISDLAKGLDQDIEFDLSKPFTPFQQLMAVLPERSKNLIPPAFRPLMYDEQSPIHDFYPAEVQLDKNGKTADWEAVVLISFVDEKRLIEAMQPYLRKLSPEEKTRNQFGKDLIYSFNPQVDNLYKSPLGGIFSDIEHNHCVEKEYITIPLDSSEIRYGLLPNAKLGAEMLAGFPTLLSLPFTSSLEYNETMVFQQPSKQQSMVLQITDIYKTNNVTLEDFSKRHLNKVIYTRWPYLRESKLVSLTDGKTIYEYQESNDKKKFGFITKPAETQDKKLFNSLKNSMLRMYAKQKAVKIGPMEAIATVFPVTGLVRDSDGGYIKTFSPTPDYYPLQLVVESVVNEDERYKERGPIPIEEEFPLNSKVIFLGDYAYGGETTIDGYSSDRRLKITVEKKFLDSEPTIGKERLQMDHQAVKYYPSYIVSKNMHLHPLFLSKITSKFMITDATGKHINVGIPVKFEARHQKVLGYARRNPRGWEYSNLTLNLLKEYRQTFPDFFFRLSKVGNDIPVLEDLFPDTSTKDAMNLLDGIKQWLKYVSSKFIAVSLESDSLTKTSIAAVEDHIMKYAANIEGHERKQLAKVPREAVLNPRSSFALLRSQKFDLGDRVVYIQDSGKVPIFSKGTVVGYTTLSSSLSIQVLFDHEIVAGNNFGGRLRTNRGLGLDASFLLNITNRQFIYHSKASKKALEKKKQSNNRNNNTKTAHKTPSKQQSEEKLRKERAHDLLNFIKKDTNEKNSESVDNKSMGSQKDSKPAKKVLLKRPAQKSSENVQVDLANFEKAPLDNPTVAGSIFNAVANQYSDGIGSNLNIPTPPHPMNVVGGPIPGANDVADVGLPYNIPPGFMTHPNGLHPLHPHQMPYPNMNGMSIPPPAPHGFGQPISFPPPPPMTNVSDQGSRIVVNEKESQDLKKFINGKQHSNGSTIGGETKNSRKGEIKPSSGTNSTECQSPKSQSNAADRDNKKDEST

In data set [2] the target is Xrn1 Tail (Saccharomyces cerevisiae) (UniProt P22147). The data set can be described thus: competition with a labelled probe. Particulars: RNA outcompetes Kap120-Tail interaction dose-dependently; EMSA: 50 mM Tris-HCl pH 7.4, 150 mM NaCl, 2 mM DTT, 1 mM EDTA, 30 min at room temperature, 6% native PAGE in 0.5x TBE; native protein; protein details: GFP.

For at least one entry, the source does not settle the construct or the ends of the probe. At least one verdict was read from the data and is not stated in words by the source.

On to “AUGUACAGUCCGACGAACACGGAGUCGACCCGCAACGCGA [40 nt RNA]”, for which the binding result in data set [1] and in data set [2] was “binds” throughout.

(Values after paper PMC9684461, “RNA-controlled nucleocytoplasmic shuttling of mRNA decay factors regulates mRNA synthesis and a novel mRNA decay pathway” (Nature Communications, 2021).)
